From PMC10783490, “Biochemical and cellular insights into the Baz2B protein, a non-catalytic subunit of the chromatin remodeling complex” (Nucleic Acids Research, 2023)
Where a chain is given by its changes, count along the chain named. These are yes or no findings as the source states them, for the method shown.

How the values were obtained:
BRD^Baz2B F2107V (human) = target: T1, BRD^Baz2B F2107V (human) (UniProt Q9UIF8); experiment: MST; 100 nM fluorescently labelled (RED-NHS) BRD^Baz2B, peptide (H3 or H3K14ac) titrated; MST buffer 150 mM Tris-HCl, 50 mM NaCl, 10 mM MgCl2, pH 7.6, 0.0025% Pluronic, 200 ng/ul BSA; 25 C, 20% MST power; at least triplicate; both purified
T1 sequence (chain, fluorescent label (Monolith NT Protein Labelling Kit RED-NHS)): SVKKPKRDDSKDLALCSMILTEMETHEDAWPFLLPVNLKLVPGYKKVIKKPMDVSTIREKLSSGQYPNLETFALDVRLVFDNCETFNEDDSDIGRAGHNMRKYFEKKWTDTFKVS

BRD^Baz2B A2149V (human) = target: T2, BRD^Baz2B A2149V (human) (UniProt Q9UIF8); experiment: as above
T2 sequence (chain, fluorescent label (Monolith NT Protein Labelling Kit RED-NHS)): T1 sequence (chain, fluorescent label (Monolith NT Protein Labelling Kit RED-NHS)) with V54F, A96V

B1: H3 peptide (Ac-…-NH2) (peptide)
peptide: TARKSTGGKAPRKQL
modifications: N-terminal acetyl; C-terminal amide
BRD^Baz2B F2107V (human)
  binding: no binding
BRD^Baz2B A2149V (human)
  binding: no binding
